Laboratory results: PubChem BioAssay AID652259 (Drosophila RNAi Screening Center, 2013)
In all, the deposit lists about 22,000 reagents; below is a random part of those that have a named target and a result. In the full data, 233 (1.1%) were called active. 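Light values are raw, unnormalised plate reads; the ratio scores behind the reporter calls were not deposited.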 Unmarked entries are inactive. The numbers tell different reagents against one gene apart. Names joined by + are all predicted targets of the reagent. The record does not give: the amount of reagent, the time to read-out, the dose of the treatment.

Aim: 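Genome-wide hunt for genes that control Wingless pathway activity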 (primary screen)
Cells: Drosophila clone 8 imaginal disc epithelial cells
Knock-down reagent: long dsRNA against Drosophila genes
Treatment: pathway stimulated by co-transfected Wingless expression plasmid
Read-out: 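Dual luciferase reads per well after Wingless plasmid stimulation: reporter firefly light and Renilla control light; activity is firefly divided by Renilla, a ratio not deposited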
Direction: firefly reporter light: higher = more Wg reporter light, before normalisation; Renilla control light: higher = more transfected or surviving cells
Hit rule: 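Strong candidates differ from their plate mean by at least two out of four per-plate statistical tests; weak candidates meet just one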
Meaning of the calls: active = candidate regulator (raises or lowers reporter); inactive = not a candidate

gene | dsRNA no. | reporter change call, replicate 1 | firefly reporter light, replicate 1 | firefly reporter light, replicate 2 | Renilla control light, replicate 1 | Renilla control light, replicate 2
CG13375 (GeneID 30976) | 1 | – | 17072 | – | 11394 | –
jus (GeneID 43453) | 1 | Wg reporter activity raised (active) | 9744 | – | 1387 | –
jus (GeneID 43453) | 2 | – | 7611 | – | 2176 | –
boss (GeneID 43146) | 1 | – | 19228 | – | 13943 | –
Cyp310a1 (GeneID 35115) | 1 | – | 9024 | – | 3340 | –
Ir75b (GeneID 8673994) | 1 | – | 7008 | – | 2786 | –
osy (GeneID 43186) | 1 | – | 20746 | – | 21606 | –
osy (GeneID 43186) | 2 | – | 23297 | – | 18640 | –
osy (GeneID 43186) | 3 | – | 1291 | 3221 | 816 | 1285
Ziz (GeneID 34030) | 1 | – | 2801 | 6877 | 736 | 2580
Ziz (GeneID 34030) | 2 | – | 2419 | 4982 | 752 | 1952
CG17917 (GeneID 40778) | 1 | – | 11712 | – | 3393 | –
SNRPG (GeneID 32636) | 1 | – | 21141 | – | 7344 | –
GstZ1 (GeneID 41132) | 1 | – | 5754 | – | 2672 | –
CG7156 (GeneID 42187) | 1 | – | 1828 | 6436 | 848 | 1901
CG4610 (GeneID 37571) | 1 | – | 3468 | 7447 | 694 | 2225
CG4610 (GeneID 37571) | 2 | – | 8.58e5 | 9.07e5 | 4.67e5 | 3.47e5
unc-104 (GeneID 36876) | 1 | – | 8065 | – | 3360 | –
Cyp309a1 (GeneID 33438) | 1 | – | 2234 | 5220 | 1280 | 2392
jar (GeneID 42889) | 1 | – | 12541 | – | 13867 | –
CG18063 (GeneID 34943) | 1 | – | 2458 | 4818 | 800 | 2280
CG32572 (GeneID 32657) | 1 | – | 21289 | – | 8368 | –
CG32572 (GeneID 32657) | 2 | – | 19676 | – | 7520 | –
CG9582 (GeneID 34230) | 1 | – | 1540 | 4244 | 688 | 2449
pum (GeneID 41094) | 1 | – | 4021 | – | 1725 | –
pum (GeneID 41094) | 2 | – | 6628 | – | 1960 | –
pum (GeneID 41094) | 3 | – | 18396 | – | 5248 | –
pum (GeneID 41094) | 4 | – | 21632 | – | 5741 | –
pum (GeneID 41094) | 5 | – | 4.54e5 | 5.50e5 | 1.98e5 | 1.43e5
pum (GeneID 41094) | 6 | – | 7.13e5 | 7.41e5 | 2.35e5 | 2.76e5
Sur (GeneID 34350) | 1 | – | 6739 | – | 1805 | –
tal-1A + tal-2A + tal-AA + 1 more | 1 | – | 4727 | – | 1057 | –
CG12985 (GeneID 32774) | 1 | – | 20449 | – | 7004 | –
repo (GeneID 47285) | 1 | – | 11044 | – | 1205 | –
udd (GeneID 35781) | 1 | – | 1520 | 6085 | 790 | 2896
CG7091 (GeneID 41590) | 1 | – | 2899 | – | 1205 | –
CG7091 (GeneID 41590) | 2 | – | 10656 | – | 2800 | –
drd (GeneID 318102) | 1 | – | 22609 | – | 8971 | –
drd (GeneID 318102) | 2 | – | 8.61e5 | 9.12e5 | 5.15e5 | 4.27e5
Dhrs4 (GeneID 38598) | 1 | – | 5122 | – | 2132 | –
Prx6c (GeneID 36098) | 1 | – | 2864 | 6064 | 834 | 1369
ND-24 (GeneID 32740) | 1 | – | 3168 | 8485 | 1201 | 3408
CG34284 (GeneID 5740234) | 1 | – | 8627 | – | 1386 | –
CG13138 (GeneID 34381) | 1 | – | 3066 | 9610 | 1085 | 4281
CG5498 (GeneID 40250) | 1 | – | 3152 | – | 1736 | –
CG15282 (GeneID 34853) | 1 | – | 7.61e5 | 7.56e5 | 1.92e5 | 3828
Vsx1 (GeneID 31470) | 1 | Wg reporter activity raised (active) | 27092 | – | 12736 | –
Vsx1 (GeneID 31470) | 2 | – | 38661 | – | 5889 | –
rgn (GeneID 40368) | 1 | – | 4512 | – | 825 | –

Active calls, of those listed so far:
gene | dsRNA no. | reporter change call, replicate 1 | firefly reporter light, replicate 1 | firefly reporter light, replicate 2 | Renilla control light, replicate 1 | Renilla control light, replicate 2
jus (GeneID 43453) | 1 | Wg reporter activity raised (active) | 9744 | – | 1387 | –
Vsx1 (GeneID 31470) | 1 | Wg reporter activity raised (active) | 27092 | – | 12736 | –
